Laboratory results: US12240870B2, “Sequencing method for CAR T cell therapy” (Purdue Research Foundation, priority 2018, dated 2025)

System: MDA-MB-231 xenografts
Experiment: EC17 dose finding and CRS assessment in MDA-MB-231 tumor-bearing mice
Assay type: in vivo
Description: Panel A: Schematic diagram to show dose scheduling of CAR-T cells (˜10 million “clinical facsimile”) plus EC17 dosed 3 different ways in NSG mice without or with pre-established MDA-MB-231 xenografts. Tumor-free mice received EC17 SIW 500 nmol/kg (2 doses on days 2 and 10). Tumor-bearing mice received EC17 as follows: EC17 SIW 500 nmol/kg (5 doses on days 2, 10, 17, 24, and 31), EC17 M/Th/M_Escalation-1 (repeats of 5/50/500 nmol/kg on Monday/Thursday/Monday followed by 1-week break, i,e. on days 2, 6, 10, 17, 20, 24, and 31), or EC17 M/Th/M_Escalation-2 (repeats of 5/100/1000 nmol/kg on Monday/Thursday/Monday followed by 1-week break, i.e. days 2, 6, 10, 17, 20, 24, and 31). Panel B: Systemic levels of human IFNγ on a log 2 scale detected in mouse plasma on days 11 and 12 after CAR-T cell injection in tumor-bearing versus tumor-free mice (i.e., ˜20 and 42 hours after the previous EC17 dose in all treated cohorts). Panel C: Circulating CAR-T cells in mouse blood identified as human CD3ε+ EGFRt+ events by flow cytometry and enumerated per 100 μL of whole blood. […]
All animal care and use were performed according to NIH guidelines and in compliance with protocols approved by the Purdue University Animal Use and Care Committee. […] Subcutaneous tumors were measured 2-3 times per week with a caliper and calculated using the ellipsoidal formula (length×width^2)/2. […]

`Nc1nc2ncc(CNc3ccc(C(=O)N[C@@H](CCC(=O)NCCNC(=S)Nc4ccc(-c5c6ccc(=O)cc-6oc6cc(O)ccc56)c(C(=O)O)c4)C(=O)O)cc3)nc2c(=O)[nH]1` [EC17, FA-(γ)-ethylenediamine-FITC] was tested, and the “CAR-T cell expansion (human CD3ε+ EGFRt+ events in mouse blood)” value (EC17 treated tumor-bearing animals) was “triggered CAR-T cell expansion” and the “persistence of CAR-T cells in blood” value (tumor-bearing animals, last measurement) was “up to 54 days”.
